Values quoted from earlier work as cited in paper PMC4674063, “Uncovering the Molecular Mechanism of Actions between Pharmaceuticals and Proteins on the AD Network” (PLoS ONE, 2015).

Settings: cited from earlier work

COc1cc2c(cc1OC)C(=O)C(CC1CCN(Cc3ccccc3)CC1)C2 (stereo not shown) [E20, donepezil]
crosses the blood-brain barrier (BBB): cross the blood-brain barrier
